# Experimental data as given in paper PMC9224301.
# No constants are given. Whether binding was seen depends on the method and setting. For some of these results: Binding seen in cells or lysates may run through a third protein. Some entries that bind do so weakly or less than the wild type. Tags and fused reporters may be left off the sequences shown.
# B1: Rpc37-13xMyc (protein, UniProt O74883 1-242)
# chain: MSFSEDQAMEEAKLRNDETEEQDPVVRTYPVFFSPGLRNNLLLNQFPLRPKNRTYSDANGEAPIDVRVKPKTGWMEVDVPIPTTKYYNEDKAMKYGNGKKPIQTQTLSGRLQKPRTNLMVGLIRDGQFHIVPLRGLTQLRPSMKHVNEYTQKLKAAAGPSNSSSGTSTPRGPIRAVQVTAKQNTEAPKVSTTHIVRATEEEEWVELDCRPERESESILKQLECPIEHQPNECAAVDEDYSFI
# B2: AD-Rpc37 (protein, UniProt O74883 1-242)
# chain: B1 chain
# B3: Mcl1 (Ctf4 homology) (protein, UniProt Q9C107 1-815)
# chain: MAGNRLVPRYAHTDGLTRLAYTRDGKFLLTVGSNQVIRKFQVGSDEEPDSIDNHQDPITGIAVAENYFCTCSEDATVCVYPIDSPTEHTLLARTTLPIRDVAYSVDGNWIAIASDETAVKVVSSTDSSQIFSLRPAKASNKHVTYSPNGNFLAVSSCNGILYFYDTQTRELIKFLTNTIASLEAESEICSKAAWHPKNGTFAVASTDHFVSVISPDDWLPLYKLLPKENHSGVTDISWSSNGMYIAASFKKGGILIWDTQSHEVVVELPYSTVVALAWQPFENVLSFTTNQGILYSCPDVIPKSILKEENDPTKPLTSSKSKNRTSKELDDLFGSDDEQSQNVNDLDGNSANEENEFINHDGLDSSLDLDGDSYMVDENDLNLAKKRKQKALIDRTTTIENGSSKRRLLQASIHKPVHTGSTPWQGNRRYLCLNLVGFIWTVQQDAEHNTITVEFHDETTHRKYHFVDDQKFEMACLDHEGALYASPATESSPGVIYYKAHVDWSRKSEWAMALPMENESPVTISLSSSVVLVCTSAGYVRVFSRQGFPISIHRSKHLPFVACSSFQDTIITIANDGLSSDGNSRLVYSIEDISRDEMLQTGDGVALPPQGTLESVFFSDVGDPYIYDSTGVLLVLMHWRIPGQAKWIPVLDTNELERRKSRQESYWPVTVADNQFHCILLKGASRYPYFPRPMFTEFDFRIPCNTNNPDASTSVPVLEELQLRNKLFLTLLEDSIGDGDVTEDEKISIARLEANIDKALLQLIQKACLEERIERVYELTKTLRRTTSIAAAQKIALHHSLTNVAEKIGNLLSNV
# B4: Eso1 (Eco1 homology) (protein, UniProt O42917 1-872)
# chain: MELGKSKFSWKDLQYCDKAGTQNSPLRVVAHIDQDAFYAQVESVRLGLDHSVPLAVQQWQGLIAVNYAARAANISRHETVTEAKKKCPELCTAHVKTWKAGESEAKYHENPNPNYYKTCLDPYRHESVKILNIIKKHAPVVKKASIDECFIELTSDVKRIVLEEYPYLKIPSEDSNVALPQAPVLLWPAEFGMVIEEEVVDRTKEDYERDWDDVFLFYAAKIVKEIRDDIYLQLKYTCSAGVSFNPMLSKLVSSRNKPNKQTILTKNAIQDYLVSLKITDIRMLGGKFGEEIINLLGTDSIKDVWNMSMDFLIDKLGQTNGPLVWNLCHGIDNTEITTQVQIKSMLSAKNFSQQKVKSEEDAINWFQVFASDLRSRFLELEGMRRPKTICLTVVSRFLRKSRSSQIPMNVDISTQFIVEATSKLLRQLQQEFDVYPISNLSISFQNIIEVDRNSRGIEGFLKKSNDEIYMSTSVSPSIEGRAKLLNENMRENNSFELSSEKDIKSPKRLKRGKGKGIFDMLQQTAVSKPTENSADETYTCEECEQKITLSERNEHEDYHIALSISRKERYNNLVPPSHDKPKQVKPKTYGRKTGSKHYAPLSDETNNKRAFLDAFLGNGGNLTPNWKKQTPKAISNSSDNMTQLHLDLANSTVTCSECSMEYNSTSEEDILLHSRFHSRVLGGVTVSFQCSPIYRVNYGLSSDCIYSINSESSLIDQRKAEEALSFVNNELSSEPIETIGVDKYTTFLFISDKKCVGLLLAERISSAYIVDELELNNNNSTSSAVYIKNENLRKGFVLGISRIWVSASRRKQGIASLLLDNALKKFIYGYVISPAEVAFSQPSESGKQFIISWHRSRNNGSSKSLRYAVYES
# What was measured:
# Chl1-5xFlag (S. pombe) = target: T1, Chl1-5xFlag (S. pombe) (UniProt O14147); assay: co-IP; cell extracts in 1x HC buffer (150 mM HEPES-KOH pH 7.5, 250 mM KCl), anti-Flag M2 agarose beads for 3 h, Western blot with anti-Flag and anti-MYC
# T1 sequence: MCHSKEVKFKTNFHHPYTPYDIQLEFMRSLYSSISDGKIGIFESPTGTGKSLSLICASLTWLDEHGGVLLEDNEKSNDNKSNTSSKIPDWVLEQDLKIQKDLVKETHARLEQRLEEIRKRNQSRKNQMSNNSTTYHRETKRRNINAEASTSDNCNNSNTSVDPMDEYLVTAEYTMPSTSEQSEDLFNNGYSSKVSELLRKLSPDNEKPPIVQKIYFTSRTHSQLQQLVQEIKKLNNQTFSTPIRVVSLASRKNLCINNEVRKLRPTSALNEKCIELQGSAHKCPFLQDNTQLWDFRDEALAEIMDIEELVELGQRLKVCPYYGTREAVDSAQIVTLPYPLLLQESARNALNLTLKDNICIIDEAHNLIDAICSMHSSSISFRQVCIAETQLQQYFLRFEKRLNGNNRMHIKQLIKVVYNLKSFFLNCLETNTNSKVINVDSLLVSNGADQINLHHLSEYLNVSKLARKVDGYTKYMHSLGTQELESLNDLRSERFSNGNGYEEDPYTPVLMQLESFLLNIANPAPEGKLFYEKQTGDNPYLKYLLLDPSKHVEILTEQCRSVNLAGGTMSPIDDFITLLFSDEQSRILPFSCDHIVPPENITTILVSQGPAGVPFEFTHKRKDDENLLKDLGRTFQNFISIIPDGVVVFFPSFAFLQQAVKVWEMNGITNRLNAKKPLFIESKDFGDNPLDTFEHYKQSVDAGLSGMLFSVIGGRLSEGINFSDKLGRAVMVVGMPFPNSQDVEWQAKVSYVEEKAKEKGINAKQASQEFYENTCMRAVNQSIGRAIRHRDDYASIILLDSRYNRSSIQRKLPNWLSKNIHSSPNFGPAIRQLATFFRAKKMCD
# BD-Chl1 (S. pombe) = target: T2, BD-Chl1 (S. pombe) (UniProt O14147); assay: two-hybrid; pGBKT7 and pGADT7 constructs cotransformed into yeast strain AH109; HIS3 and ADE2 reporters assessed on SD/-Ade/-His/-Leu/-Trp plates
# T2 sequence: T1 sequence
Binder,binding (Chl1-5xFlag (S. pombe)),binding (BD-Chl1 (S. pombe))
B1,binds,–
B2,–,binds
B3,–,no binding
B4,–,no binding
